Experimental data from publication PMC8699254.
These are yes or no findings as the source states them, for the method shown. Binding seen in cells or lysates may run through a third protein. Here binding means that the protein was enriched with, or labelled near, the bait; the list need not be complete. For some assays here: No binding means not detected with the bait. For some assays here: Tags and fused reporters may be left off the sequences shown.

T1: Strep-tagged PEAK3 (ST-PEAK3), wild type (human), Q6ZS72
T1 chain: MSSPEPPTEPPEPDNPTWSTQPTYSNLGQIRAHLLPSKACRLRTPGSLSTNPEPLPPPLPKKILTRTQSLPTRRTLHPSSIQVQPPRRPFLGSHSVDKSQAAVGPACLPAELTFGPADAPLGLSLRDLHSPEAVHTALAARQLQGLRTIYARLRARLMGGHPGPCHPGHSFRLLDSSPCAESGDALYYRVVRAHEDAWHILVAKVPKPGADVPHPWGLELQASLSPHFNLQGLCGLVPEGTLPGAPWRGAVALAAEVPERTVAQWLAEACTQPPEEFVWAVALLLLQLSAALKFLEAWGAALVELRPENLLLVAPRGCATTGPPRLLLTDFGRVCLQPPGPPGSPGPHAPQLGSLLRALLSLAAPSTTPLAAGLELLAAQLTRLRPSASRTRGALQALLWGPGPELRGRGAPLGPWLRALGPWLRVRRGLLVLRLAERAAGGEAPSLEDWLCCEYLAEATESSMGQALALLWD


What was measured:
[1] = biological target: T1, Strep-tagged PEAK3 (ST-PEAK3), wild …; conditions: remark: other sources report otherwise
[2] = biological target: Strep-tagged PEAK3 (ST-PEAK3), wild type (human) (UniProt Q6ZS72)

binding [1]	binding [2]	Binder
no binding	–	CRKII, P46108-1 1-304 (protein) MAGNFDSEERSSWYWGRLSRQEAVALLQGQRHGVFLVRDSSTSPGDYVLSVSENSRVSHYIINSSGPRPPVPPSPAQPPPGVSPSRLRIGDQEFDSLPALLEFYKIHYLDTTTLIEPVSRSRQGSGVILRQEEAEYVRALFDFNGNDEEDLPFKKGDILRIRDKPEEQWWNAEDSEGKRGMIPVPYVEKYRPASASVSALIGGNQEGSHPQPLGGPEPGPYAQPSVNTPLPNLQNGPIYARVIQKRVPNAYDKTALALEVGELVKVTKINVSGQWEGECNGKRGHFPFTHVRLLDQQNPDEDFS
–	binds	Pragmin/PEAK2 (protein, UniProt Q86YV5 1-1406) MHQTLCLNPESLKMSACSDFVEHIWKPGSCKNCFCLRSDHQLVAGPPQPRAGSLPPPPRLPPRPENCRLEDEGVNSSPYSKPTIAVKPTMMSSEASDVWTEANLSAEVSQVIWRRAPGKLPLPKQEDAPVVYLGSFRGVQKPAGPSTSPDGNSRCPPAYTMVGLHNLEPRGERNIAFHPVSFPEEKAVHKEKPSFPYQDRPSTQESFRQKLAAFAGTTSGCHQGPGPLRESLPSEDDSDQRCSPSGDSEGGEYCSILDCCPGSPVAKAASQTAGSRGRHGGRDCSPTCWEQGKCSGPAEQEKRGPSFPKECCSQGPTAHPSCLGPKKLSLTSEAAISSDGLSCGSGSGSGSGASSPFVPHLESDYCSLMKEPAPEKQQDPGCPGVTPSRCLGLTGEPQPPAHPREATQPEPIYAESTKRKKAAPVPSKSQAKIEHAAAAQGQGQVCTGNAWAQKAASGWGRDSPDPTPQVSATITVMAAHPEEDHRTIYLSSPDSAVGVQWPRGPVSQNSEVGEEETSAGQGLSSRESHAHSASESKPKERPAIPPKLSKSSPVGSPVSPSAGGPPVSPLADLSDGSSGGSSIGPQPPSQGPADPAPSCRTNGVAISDPSRCPQPAASSASEQRRPRFQAGTWSRQCRIEEEEEVEQELLSHSWGRETKNGPTDHSNSTTWHRLHPTDGSSGQNSKVGTGMSKSASFAFEFPKDRSGIETFSPPPPPPKSRHLLKMNKSSSDLEKVSQGSAESLSPSFRGVHVSFTTGSTDSLASDSRTCSDGGPSSELAHSPTNSGKKLFAPVPFPSGSTEDVSPSGPQQPPPLPQKKIVSRAASSPDGFFWTQGSPKPGTASPKLNLSHSETNVHDESHFSYSLSPGNRHHPVFSSSDPLEKAFKGSGHWLPAAGLAGNRGGCGSPGLQCKGAPSASSSQLSVSSQASTGSTQLQLHGLLSNISSKEGTYAKLGGLYTQSLARLVAKCEDLFMGGQKKELHFNENNWSLFKLTCNKPCCDSGDAIYYCATCSEDPGSTYAVKICKAPEPKTVSYCSPSVPVHFNIQQDCGHFVASVPSSMLSSPDAPKDPVPALPTHPPAQEQDCVVVITREVPHQTASDFVRDSAASHQAEPEAYERRVCFLLLQLCNGLEHLKEHGIIHRDLCLENLLLVHCTLQAGPGPAPAPAPAPAPAAAAPPCSSAAPPAGGTLSPAAGPASPEGPREKQLPRLIISNFLKAKQKPGGTPNLQQKKSQARLAPEIVSASQYRKFDEFQTGILIYELLHQPNPFEVRAQLRERDYRQEDLPPLPALSLYSPGLQQLAHLLLEADPIKRIRIGEAKRVLQCLLWGPRRELVQQPGTSEEALCGTLHNWIDMKRALMMMKFAEKAVDRRRGVELEDWLCCQYLASAEPGALLQSLKLLQLL
